From the supplement of paper PMC10849652
The other results are listed elsewhere or left out.

Chains of the proteins cited; added tags and fusions are not shown. Lines headed by an entry give the natural chain unless they say otherwise; changes in a name come on top.
UniProt Q9Y5W8: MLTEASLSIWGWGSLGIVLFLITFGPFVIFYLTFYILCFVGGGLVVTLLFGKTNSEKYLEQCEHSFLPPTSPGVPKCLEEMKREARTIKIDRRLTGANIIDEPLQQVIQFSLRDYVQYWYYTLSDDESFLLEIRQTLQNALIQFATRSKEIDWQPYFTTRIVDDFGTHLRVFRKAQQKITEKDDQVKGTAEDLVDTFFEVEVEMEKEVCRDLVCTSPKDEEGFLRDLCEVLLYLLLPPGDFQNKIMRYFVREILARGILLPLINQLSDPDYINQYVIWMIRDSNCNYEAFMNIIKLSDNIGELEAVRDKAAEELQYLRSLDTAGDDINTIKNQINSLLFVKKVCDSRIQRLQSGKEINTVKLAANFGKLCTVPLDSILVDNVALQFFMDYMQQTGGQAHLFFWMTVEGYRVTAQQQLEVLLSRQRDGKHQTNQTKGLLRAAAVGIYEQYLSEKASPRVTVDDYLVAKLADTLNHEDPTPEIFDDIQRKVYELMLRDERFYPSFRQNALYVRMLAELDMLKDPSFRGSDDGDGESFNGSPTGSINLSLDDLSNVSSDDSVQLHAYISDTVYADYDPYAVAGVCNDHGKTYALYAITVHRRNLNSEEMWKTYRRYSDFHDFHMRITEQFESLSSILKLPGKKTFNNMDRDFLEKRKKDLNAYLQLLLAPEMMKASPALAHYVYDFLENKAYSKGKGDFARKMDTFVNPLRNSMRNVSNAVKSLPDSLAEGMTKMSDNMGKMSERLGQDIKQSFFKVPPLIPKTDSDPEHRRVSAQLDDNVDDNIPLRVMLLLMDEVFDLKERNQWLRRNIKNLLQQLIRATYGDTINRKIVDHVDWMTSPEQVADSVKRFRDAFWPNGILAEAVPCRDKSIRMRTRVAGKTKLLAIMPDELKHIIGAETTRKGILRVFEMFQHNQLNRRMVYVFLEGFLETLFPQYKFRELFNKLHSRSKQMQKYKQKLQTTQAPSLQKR
UniProt P19634, whole entry, looked up: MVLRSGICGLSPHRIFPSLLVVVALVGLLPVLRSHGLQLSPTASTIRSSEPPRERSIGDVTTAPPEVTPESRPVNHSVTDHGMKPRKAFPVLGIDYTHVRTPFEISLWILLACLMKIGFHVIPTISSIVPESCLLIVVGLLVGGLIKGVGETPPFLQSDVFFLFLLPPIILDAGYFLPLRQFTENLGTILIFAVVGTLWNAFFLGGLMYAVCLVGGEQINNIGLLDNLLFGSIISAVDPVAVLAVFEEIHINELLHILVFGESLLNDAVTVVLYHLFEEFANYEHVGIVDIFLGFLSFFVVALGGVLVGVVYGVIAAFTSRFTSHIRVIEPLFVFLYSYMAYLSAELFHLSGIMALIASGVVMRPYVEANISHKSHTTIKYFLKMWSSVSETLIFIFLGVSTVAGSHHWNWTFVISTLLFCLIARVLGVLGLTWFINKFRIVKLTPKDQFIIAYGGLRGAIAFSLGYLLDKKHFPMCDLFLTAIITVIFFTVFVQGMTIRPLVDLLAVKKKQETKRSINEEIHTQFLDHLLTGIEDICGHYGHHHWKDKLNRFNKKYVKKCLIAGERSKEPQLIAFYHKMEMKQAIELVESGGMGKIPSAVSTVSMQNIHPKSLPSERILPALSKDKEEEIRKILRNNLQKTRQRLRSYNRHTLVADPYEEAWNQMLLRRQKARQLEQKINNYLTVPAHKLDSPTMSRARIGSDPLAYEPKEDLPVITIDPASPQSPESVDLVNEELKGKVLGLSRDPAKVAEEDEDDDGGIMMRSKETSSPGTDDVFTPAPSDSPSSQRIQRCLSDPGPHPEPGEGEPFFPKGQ
UniProt Q96Q15: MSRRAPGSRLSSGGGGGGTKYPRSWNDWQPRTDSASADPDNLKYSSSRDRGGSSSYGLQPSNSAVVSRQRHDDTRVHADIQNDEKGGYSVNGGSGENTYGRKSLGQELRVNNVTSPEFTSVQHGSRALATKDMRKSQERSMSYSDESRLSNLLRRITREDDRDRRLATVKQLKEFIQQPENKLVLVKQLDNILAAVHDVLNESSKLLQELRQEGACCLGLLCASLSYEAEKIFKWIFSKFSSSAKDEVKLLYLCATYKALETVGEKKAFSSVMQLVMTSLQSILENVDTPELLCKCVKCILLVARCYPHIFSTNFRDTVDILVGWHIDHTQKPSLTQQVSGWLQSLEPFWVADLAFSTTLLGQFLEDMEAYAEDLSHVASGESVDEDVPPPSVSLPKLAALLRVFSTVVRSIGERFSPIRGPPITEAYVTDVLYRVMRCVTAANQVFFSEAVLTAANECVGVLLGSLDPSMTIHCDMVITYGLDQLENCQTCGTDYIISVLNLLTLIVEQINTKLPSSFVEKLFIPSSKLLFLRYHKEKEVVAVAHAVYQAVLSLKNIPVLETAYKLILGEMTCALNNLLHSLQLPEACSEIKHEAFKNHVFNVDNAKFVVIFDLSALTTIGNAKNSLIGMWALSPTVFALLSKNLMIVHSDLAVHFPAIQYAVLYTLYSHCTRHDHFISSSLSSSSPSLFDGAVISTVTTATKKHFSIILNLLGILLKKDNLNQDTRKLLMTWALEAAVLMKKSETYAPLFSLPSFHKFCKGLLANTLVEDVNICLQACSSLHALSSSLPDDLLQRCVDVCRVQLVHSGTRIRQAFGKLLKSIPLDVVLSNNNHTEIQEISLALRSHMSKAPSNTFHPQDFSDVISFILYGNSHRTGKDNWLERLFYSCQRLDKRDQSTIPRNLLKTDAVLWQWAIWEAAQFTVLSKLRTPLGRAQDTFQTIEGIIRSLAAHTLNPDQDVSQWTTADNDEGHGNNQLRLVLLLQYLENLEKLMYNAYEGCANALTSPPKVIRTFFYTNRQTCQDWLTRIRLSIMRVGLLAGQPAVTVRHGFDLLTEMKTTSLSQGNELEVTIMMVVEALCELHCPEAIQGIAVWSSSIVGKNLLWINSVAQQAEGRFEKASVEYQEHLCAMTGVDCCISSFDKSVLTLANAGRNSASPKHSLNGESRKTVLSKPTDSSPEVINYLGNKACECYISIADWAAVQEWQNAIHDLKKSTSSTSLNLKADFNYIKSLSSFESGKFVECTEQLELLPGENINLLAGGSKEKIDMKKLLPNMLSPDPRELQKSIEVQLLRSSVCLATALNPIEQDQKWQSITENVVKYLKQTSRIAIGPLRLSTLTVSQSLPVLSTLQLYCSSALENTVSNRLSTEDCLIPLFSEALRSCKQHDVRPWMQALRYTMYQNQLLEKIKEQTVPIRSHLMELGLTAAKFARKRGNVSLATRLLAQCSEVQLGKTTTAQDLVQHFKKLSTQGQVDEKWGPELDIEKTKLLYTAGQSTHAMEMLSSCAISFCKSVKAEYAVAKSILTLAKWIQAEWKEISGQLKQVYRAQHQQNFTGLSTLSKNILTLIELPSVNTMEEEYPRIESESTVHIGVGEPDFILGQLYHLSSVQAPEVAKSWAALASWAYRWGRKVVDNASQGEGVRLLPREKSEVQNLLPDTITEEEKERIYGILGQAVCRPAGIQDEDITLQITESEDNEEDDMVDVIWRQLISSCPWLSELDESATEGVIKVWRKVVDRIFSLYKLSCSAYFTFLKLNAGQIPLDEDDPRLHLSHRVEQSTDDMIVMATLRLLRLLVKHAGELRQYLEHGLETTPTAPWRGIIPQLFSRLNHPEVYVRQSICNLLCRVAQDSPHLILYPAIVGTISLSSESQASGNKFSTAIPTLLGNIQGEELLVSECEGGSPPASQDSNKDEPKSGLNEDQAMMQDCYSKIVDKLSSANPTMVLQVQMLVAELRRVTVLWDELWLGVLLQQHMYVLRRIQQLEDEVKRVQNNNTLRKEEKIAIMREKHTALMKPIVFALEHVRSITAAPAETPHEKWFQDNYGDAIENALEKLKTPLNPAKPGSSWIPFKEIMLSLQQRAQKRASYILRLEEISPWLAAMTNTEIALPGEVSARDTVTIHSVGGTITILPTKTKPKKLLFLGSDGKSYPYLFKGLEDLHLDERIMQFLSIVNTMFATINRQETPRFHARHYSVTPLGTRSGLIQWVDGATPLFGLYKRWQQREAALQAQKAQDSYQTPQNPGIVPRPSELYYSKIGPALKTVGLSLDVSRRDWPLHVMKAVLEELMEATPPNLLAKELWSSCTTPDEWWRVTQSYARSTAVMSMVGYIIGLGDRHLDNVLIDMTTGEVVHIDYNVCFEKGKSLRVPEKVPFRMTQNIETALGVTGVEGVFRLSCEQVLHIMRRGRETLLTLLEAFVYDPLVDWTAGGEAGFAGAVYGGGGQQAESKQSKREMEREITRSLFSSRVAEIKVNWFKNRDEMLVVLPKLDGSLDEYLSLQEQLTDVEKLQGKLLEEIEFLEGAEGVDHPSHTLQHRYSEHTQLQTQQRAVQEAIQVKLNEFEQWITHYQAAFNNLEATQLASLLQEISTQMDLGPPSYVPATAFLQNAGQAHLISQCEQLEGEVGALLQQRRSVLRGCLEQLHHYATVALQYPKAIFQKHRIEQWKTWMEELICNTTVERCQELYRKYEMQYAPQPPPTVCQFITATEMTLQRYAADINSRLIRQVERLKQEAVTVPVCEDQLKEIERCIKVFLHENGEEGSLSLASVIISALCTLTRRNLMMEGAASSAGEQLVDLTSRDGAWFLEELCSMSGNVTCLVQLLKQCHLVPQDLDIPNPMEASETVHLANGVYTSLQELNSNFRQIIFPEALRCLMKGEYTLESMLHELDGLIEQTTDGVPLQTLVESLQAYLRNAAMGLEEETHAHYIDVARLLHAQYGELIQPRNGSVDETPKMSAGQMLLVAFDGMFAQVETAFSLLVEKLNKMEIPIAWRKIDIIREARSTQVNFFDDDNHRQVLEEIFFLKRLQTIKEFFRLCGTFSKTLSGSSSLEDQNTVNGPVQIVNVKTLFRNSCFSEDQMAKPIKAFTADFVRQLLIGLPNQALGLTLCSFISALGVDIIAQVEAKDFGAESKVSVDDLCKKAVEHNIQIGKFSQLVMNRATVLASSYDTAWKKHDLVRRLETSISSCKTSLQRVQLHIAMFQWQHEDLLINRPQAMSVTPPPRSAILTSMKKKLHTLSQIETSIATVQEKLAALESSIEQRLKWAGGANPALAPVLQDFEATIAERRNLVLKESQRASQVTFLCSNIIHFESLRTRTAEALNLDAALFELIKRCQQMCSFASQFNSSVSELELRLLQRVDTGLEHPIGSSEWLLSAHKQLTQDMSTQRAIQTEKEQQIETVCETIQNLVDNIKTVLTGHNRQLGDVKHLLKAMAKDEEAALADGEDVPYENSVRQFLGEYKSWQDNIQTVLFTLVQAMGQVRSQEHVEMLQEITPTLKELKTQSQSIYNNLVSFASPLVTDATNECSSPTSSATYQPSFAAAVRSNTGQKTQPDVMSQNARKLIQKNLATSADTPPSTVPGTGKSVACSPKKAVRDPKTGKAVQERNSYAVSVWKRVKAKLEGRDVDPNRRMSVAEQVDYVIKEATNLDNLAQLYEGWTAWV
UniProt Q92543: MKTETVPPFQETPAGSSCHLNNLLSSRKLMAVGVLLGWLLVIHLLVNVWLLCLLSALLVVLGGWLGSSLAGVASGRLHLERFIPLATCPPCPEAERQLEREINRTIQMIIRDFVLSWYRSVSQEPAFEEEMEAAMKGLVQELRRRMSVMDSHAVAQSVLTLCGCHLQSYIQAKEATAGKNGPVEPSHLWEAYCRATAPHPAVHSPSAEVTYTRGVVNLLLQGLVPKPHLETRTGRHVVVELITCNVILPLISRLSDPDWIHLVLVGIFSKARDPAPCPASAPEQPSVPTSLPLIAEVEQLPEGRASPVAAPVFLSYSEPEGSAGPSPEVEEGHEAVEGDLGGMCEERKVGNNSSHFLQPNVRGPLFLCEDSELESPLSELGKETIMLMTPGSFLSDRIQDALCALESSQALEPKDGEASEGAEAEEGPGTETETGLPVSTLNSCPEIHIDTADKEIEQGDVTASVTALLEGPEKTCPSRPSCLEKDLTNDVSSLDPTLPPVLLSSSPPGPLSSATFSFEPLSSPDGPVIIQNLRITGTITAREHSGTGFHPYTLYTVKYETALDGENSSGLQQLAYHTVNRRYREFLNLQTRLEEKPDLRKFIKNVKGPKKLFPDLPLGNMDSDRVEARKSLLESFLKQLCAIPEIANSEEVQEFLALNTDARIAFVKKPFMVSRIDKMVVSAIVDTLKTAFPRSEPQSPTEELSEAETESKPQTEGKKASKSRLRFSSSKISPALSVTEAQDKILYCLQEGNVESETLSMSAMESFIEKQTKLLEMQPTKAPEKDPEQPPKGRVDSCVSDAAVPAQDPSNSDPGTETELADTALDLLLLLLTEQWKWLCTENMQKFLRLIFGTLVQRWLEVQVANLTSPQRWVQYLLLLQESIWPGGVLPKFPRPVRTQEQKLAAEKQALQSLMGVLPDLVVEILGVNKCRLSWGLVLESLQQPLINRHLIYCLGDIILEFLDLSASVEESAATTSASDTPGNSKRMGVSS

Tests used:
Assay in all cases: log2 fold change, soluble protein after heating vs DMSO (PISA); higher = thermal stabilisation; K562 cells, 10 uM, 30 min; active = over 0.2 and 3.5 SD of the protein, either way, in both replicates (recomputed)
[1] = compound: CS(=O)(=O)c1ccc(-c2cnc(N)c(C(=O)Nc3ccccc3)n2)cc1
Outline: (§1)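 Soluble protein was quantified by TMTpro 16plex LC-MS/MS after channel sums were equalised. It was obtained as the supernatant after 21,000xg for 90 min from pooled aliquots of K562 cells (2×10^6 cells/mL, 10 μM compound, 30 min) heated for 3 min across 48°C-58°C and extracted in PBS with 0.5% NP-40 at 4°C. Thermal stability values are relative to control samples and come from duplicates. They are given as log2 fold changes.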

[2] = compound: C[C@@H]1COCCN1C2=NC(=NC(=C2)C3(CC3)S(=O)(=O)C)C4=C5C=CNC5=CC=C4
Outline: as §1

[3] = compound: C[C@H](C1=CC=C(C=C1)C(=O)NC2=C3C=CNC3=NC=C2)N
Outline: as §1

duvelisib = compound: C[C@H](Nc1ncnc2nc[nH]c12)c1cc2cccc(Cl)c2c(=O)n1-c1ccccc1 [duvelisib]
Outline: as §1

gandotinib = compound: Cc1cc(Nc2cc(CN3CCOCC3)c3nc(C)c(Cc4ccc(Cl)cc4F)n3n2)n[nH]1 [gandotinib]
Outline: as §1

tozasertib = compound: Cc1cc(Nc2cc(N3CCN(C)CC3)nc(Sc3ccc(NC(=O)C4CC4)cc3)n2)n[nH]1 [tozasertib]
Outline: as §1

[4] = compound: Cc1cc(SCc2sc(-c3ccc(C(F)(F)F)cc3)nc2C)ccc1OCC(=O)O
Outline: as §1

ispinesib = compound: Cc1ccc(C(=O)N(CCCN)[C@@H](c2nc3cc(Cl)ccc3c(=O)n2Cc2ccccc2)C(C)C)cc1 [ispinesib]
Outline: as §1

bafetinib = compound: Cc1ccc(NC(=O)c2ccc(CN3CC[C@H](N(C)C)C3)c(C(F)(F)F)c2)cc1Nc1nccc(-c2cncnc2)n1 [bafetinib]
Outline: as §1

[5] = compound: Cc1cccc(CC(=O)N2CCc3c2ccc(-c2cn(C)c4ncnc(N)c24)c3F)n1
Outline: as §1

nilotinib = compound: Cc1cn(-c2cc(NC(=O)c3ccc(C)c(Nc4nccc(-c5cccnc5)n4)c3)cc(C(F)(F)F)c2)cn1 [nilotinib]
Outline: as §1

[6] = compound: Cc1nc(Nc2n[nH]c3c2CN(C(=O)N[C@H](CN(C)C)c2ccccc2)C3(C)C)c2sccc2n1
Outline: as §1

dasatinib = compound: Cc1nc(Nc2ncc(C(=O)Nc3c(C)cccc3Cl)s2)cc(N2CCN(CCO)CC2)n1 [dasatinib]
Outline: as §1

[7] = compound: Cc1ncc(-c2ccnc(Nc3ccc(S(C)(=O)=O)cc3)n2)n1C(C)C
Outline: as §1

[8] = compound: Cn1cc(-c2ccc3c(c2)CCN3C(=O)Cc2cccc(C(F)(F)F)c2)c2c(N)ncnc21
Outline: as §1

[9] = compound: Cn1cc(-c2ccc3nnc(C(F)(F)c4ccc5ncccc5c4)n3n2)cn1
Outline: as §1

tipifarnib = compound: Cn1cncc1[C@@](N)(c1ccc(Cl)cc1)c1ccc2c(c1)c(-c1cccc(Cl)c1)cc(=O)n2C [tipifarnib]
Outline: as §1

mubritinib = compound: FC(F)(F)c1ccc(/C=C/c2nc(COc3ccc(CCCCn4ccnn4)cc3)co2)cc1 [mubritinib]
Outline: as §1

crizotinib = compound: C[C@@H](Oc1cc(-c2cnn(C3CCNCC3)c2)cnc1N)c1c(Cl)ccc(F)c1Cl [crizotinib]
Outline: as §1

doramapimod = compound: Cc1ccc(-n2nc(C(C)(C)C)cc2NC(=O)Nc2ccc(OCCN3CCOCC3)c3ccccc23)cc1 [doramapimod]
Outline: as §1

Measured: log2 fold change

SNRPC (UniProt Q5TAL2)
inactive: [1] 0.065 | [2] -0.04 | [3] -0.061 | duvelisib 0.124 | gandotinib 0.265 | tozasertib -0.104 | [4] -0.143 | ispinesib -0.008 | bafetinib 0 | [5] -0.088 | nilotinib 0.135 | [6] 0.038 | dasatinib 0.19 | [7] 0.061 | [8] 0.064 | [9] -0.091 | tipifarnib 0.034 | mubritinib 0.046

SOS1 (UniProt Q07889)
inactive: [1] -0.039 | crizotinib -0.084 | [2] 0.047 | tozasertib -0.031 | doramapimod 0.189 | ispinesib -0.016 | bafetinib -0.069 | nilotinib -0.161 | [6] 0.075 | [7] -0.013 | [9] -0.076 | mubritinib -0.12

SMARCAD1 isoform 2 (UniProt Q9H4L7)
inactive: [1] 0.029 | crizotinib -0.112 | [2] 0.088 | [3] -0.054 | gandotinib -0.042 | [4] 0.15 | doramapimod -0.058 | ispinesib 0 | bafetinib 0.067 | [5] 0.014 | nilotinib 0.049 | [6] -0.056 | dasatinib -0.131 | [7] -0.049 | [8] 0.088 | [9] 0.034 | tipifarnib -0.144 | mubritinib 0.241

SNX18 (UniProt Q96RF0)
inactive: [1] 0.089 | crizotinib -0.142 | [2] -0.127 | doramapimod 0.032

SNX2 isoform 2 (UniProt O60749)
inactive: [1] 0.135 | crizotinib -0.145 | [2] 0.071 | [3] 0.108 | [4] -0.029 | doramapimod 0.17 | bafetinib -0.163 | dasatinib -0.097 | [8] 0.16 | tipifarnib -0.155

SNX13 (UniProt Q9Y5W8)
inactive: [1] 0.032 | [2] 0.152 | duvelisib 0.07 | [4] -0.052 | ispinesib -0.07 | bafetinib 0.192 | dasatinib 0.067 | [9] 0.065 | mubritinib 0.053

SLC9A1 (UniProt P19634)
inactive: [1] -0.005 | crizotinib -0.102 | [2] -0.004 | duvelisib 0.038 | gandotinib 0.068 | tozasertib 0.021 | [4] -0.002 | doramapimod 0.068 | bafetinib -0.021 | [5] -0.029 | nilotinib 0.025 | [6] 0.027 | dasatinib 0.001 | [7] 0.019 | tipifarnib 0 | mubritinib -0.045

SNX25 (UniProt Q9H3E2)
inactive: [1] 0 | crizotinib -0.022 | duvelisib 0.065 | [4] -0.005 | doramapimod 0.115 | nilotinib 0.041 | [6] 0.1 | dasatinib 0.081 | [7] 0.091 | tipifarnib 0.101 | mubritinib -0.095

SMG1 (UniProt Q96Q15)
inactive: [1] 0.04 | crizotinib 0.012 | [2] -0.083 | [3] 0.016 | gandotinib -0.024 | [4] 0.098 | doramapimod 0.051 | ispinesib 0.033 | bafetinib 0.059 | [5] -0.012 | nilotinib 0.03 | [6] -0.061 | dasatinib -0.266 | [7] -0.015 | [8] -0.035 | [9] 0.023 | tipifarnib -0.098 | mubritinib 0.064

SNX19 (UniProt Q92543)
inactive: [1] 0.009 | crizotinib -0.24 | [2] 0.112 | doramapimod -0.061 | tipifarnib -0.12
